Test results as given in PMC11629795.
No constants are given. Whether binding was seen depends on the method and setting. Binding seen in cells or lysates may run through a third protein. Some results given as binding are weak or reduced against the parent protein; the word gives no strength.

Chains of the proteins cited; added tags and fusions are not shown. Residues count along the entry.
UniProt Q9UHX3, residues 24-823: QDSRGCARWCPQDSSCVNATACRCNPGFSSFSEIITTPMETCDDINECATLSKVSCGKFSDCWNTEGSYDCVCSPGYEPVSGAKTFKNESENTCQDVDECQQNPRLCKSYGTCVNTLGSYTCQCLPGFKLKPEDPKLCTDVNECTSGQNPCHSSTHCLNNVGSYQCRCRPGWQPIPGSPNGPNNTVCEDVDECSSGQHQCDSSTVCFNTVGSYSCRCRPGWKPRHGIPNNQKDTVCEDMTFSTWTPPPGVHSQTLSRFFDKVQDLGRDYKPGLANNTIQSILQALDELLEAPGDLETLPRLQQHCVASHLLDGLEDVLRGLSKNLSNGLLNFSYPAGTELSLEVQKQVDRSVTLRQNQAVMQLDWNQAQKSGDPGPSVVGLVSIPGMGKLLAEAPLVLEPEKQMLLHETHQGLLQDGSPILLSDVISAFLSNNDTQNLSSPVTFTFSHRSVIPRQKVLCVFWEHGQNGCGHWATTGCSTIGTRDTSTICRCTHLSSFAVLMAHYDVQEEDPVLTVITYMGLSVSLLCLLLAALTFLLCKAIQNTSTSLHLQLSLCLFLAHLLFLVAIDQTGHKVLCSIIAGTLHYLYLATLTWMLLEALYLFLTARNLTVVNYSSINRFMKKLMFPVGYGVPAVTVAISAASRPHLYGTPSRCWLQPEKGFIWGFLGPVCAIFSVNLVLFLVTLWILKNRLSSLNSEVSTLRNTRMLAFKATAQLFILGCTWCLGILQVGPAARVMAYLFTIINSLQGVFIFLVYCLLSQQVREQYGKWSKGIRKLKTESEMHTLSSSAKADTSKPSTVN
UniProt P30679: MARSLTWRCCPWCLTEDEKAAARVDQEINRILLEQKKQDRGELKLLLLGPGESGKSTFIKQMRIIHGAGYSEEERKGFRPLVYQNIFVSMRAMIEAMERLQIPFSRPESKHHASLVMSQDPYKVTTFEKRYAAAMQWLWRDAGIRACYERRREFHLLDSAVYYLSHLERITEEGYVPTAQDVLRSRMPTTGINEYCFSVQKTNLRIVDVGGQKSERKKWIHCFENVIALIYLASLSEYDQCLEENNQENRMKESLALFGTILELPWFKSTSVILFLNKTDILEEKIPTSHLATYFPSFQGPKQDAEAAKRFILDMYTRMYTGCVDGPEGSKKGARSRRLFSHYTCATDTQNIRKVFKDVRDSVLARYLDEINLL

Legend:
[1] = target: CD312 (human (in CD3+ T cells from children's bone marrow)) (UniProt Q9UHX3); assay: proximity ligation; in situ DuoLink PLA kit (Sigma-Aldrich) on treated cells fixed with 4% paraformaldehyde; primary antibodies overnight
[2] = target: CD312 (human (in CD3+ T cells from children's bone marrow)) (UniProt Q9UHX3); assay: co-IP; lysate of treated cells (40 mM HEPES pH 7.4, 0.5% Triton X-100, 2 mM EDTA, protease inhibitors); antibody overnight at 4°C, protein A/G agarose beads 4 h; SDS-PAGE and western blot; precipitating antibody not stated

Which binding [1] does the source give for GNA15 (from UniProt P30679 1-374) here?
Its binding is “binds”.

And the binding [2]?
The binding was “binds”.
